According to patent US6949250B2, “Selective algaecides for control of cyanochloronta” (The United States of America as represented by the …, priority 2002, dated 2005):
For at least one compound, name, drawing or mass did not settle the structure. Marks after values point to notes of the source that are not given here.

Legend:
Type in all cases: in vivo
Conditions in all cases: 2 μM
[1] = tested on: chlorophyll a; assay: DNA1-19-1 first pond efficacy study (limnocorrals): chlorophyll a
[2] = tested on: Oscillatoria perornata; assay: DNA1-19-1 first pond efficacy study (limnocorrals): O. perornata abundance
[3] = tested on: 2-methylisoborneol; assay: DNA1-19-1 first pond efficacy study (limnocorrals): MIB levels

CCN(CC)CCCC(C)NCc1ccc2c(c1)C(=O)c1ccccc1C2=O.O=P(O)(O)O.O=P(O)(O)O (stereo not drawn) [DNA1-19-1, 2-[methylamino-N-(1′-methyl-4′-N,N-diethylaminobutyl)]-9,10-anthraquinone diphosphate]
Chlorophyll a Levels in Treatment Limnocorrals ([1]; day 0 (before application)): 365.7^a ± 16.9 mg/L | Chlorophyll a Levels in Treatment Limnocorrals ([1]; day 0.7): 160.2^b ± 5.3 mg/L | Chlorophyll a Levels in Treatment Limnocorrals ([1]; day 3.0): 237.6^b ± 25.2 mg/L | Chlorophyll a Levels in Treatment Limnocorrals ([1]; day 8.0): 526.2^a ± 157.3 mg/L | Chlorophyll a Levels in Treatment Limnocorrals ([1]; day 10.0): 368.7^b ± 94.9 mg/L | Oscillatoria perornata Filaments/mL in Treatment Limnocorrals ([2]; day 0 (before application)): 4,556^a ± 519.8 Filaments/mL | Oscillatoria perornata Filaments/mL in Treatment Limnocorrals ([2]; day 0.7): 980^b ± 115.3 Filaments/mL | Oscillatoria perornata Filaments/mL in Treatment Limnocorrals ([2]; day 3.0): 1,961^b ± 708.6 Filaments/mL | Oscillatoria perornata Filaments/mL in Treatment Limnocorrals ([2]; day 8.0): 3,172^a ± 1,592.9 Filaments/mL | Oscillatoria perornata Filaments/mL in Treatment Limnocorrals ([2]; day 10.0): 3,575^a ± 1798.8 Filaments/mL | MIB Levels in Treatment Limnocorrals ([3]; day 0 (before application)): 15.25^a ± 3.43 mg/L | MIB Levels in Treatment Limnocorrals ([3]; day 0.7): 0.97^b ± 0.19 mg/L | MIB Levels in Treatment Limnocorrals ([3]; day 3.0): 4.56^b ± 1.87 mg/L | MIB Levels in Treatment Limnocorrals ([3]; day 8.0): 0.55^a ± 0.33 mg/L | MIB Levels in Treatment Limnocorrals ([3]; day 10.0): 5.46^a ± 5.26 mg/L
